The list shows a part of the results. Many values rest on one well or one pass, so single values are uncertain.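 Cells were imaged in 1,536-well plates, and nuclei stained with an antibody against cleaved PARP were counted against all DNA-stained nuclei to give the apoptosis fraction. Screening doses were chosen to leave most cells alive, and resting and induced cleaved-PARP levels differ strongly between cell lines.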

For one assay, the system named is MeWo. The assay is described as follows: cleaved PARP positive nuclei fraction relative to DMSO control; melanoma cells; higher = more apoptosis. The note with it: library dose: low library concentration; 72 h.
On to `Cn1c(=O)n(-c2ccc(C(C)(C)C#N)cc2)c2c3cc(-c4cnc5ccccc5c4)ccc3ncc21` + CCCCCCCCCCCC1=C(O)C(=O)C=C(O)C1=O [Embelin] (first compound 0.004 µM, partner dose 1.2 µM), for which the “cleaved PARP positive nuclei fraction” value was determined as 63.4%.
Consider `CN1CCN(c2ccc3nc(-c4c(N)c5c(F)cccc5[nH]c4=O)[nH]c3c2)CC1` [Dovitinib] + NCC(=O)Nc1ccc(-n2nc(C(F)(F)F)cc2-c2ccc3c(ccc4ccccc43)c2)cc1 [OSU03012] (first compound 0.1 µM, partner dose 1 µM), for which the “cleaved PARP positive nuclei fraction” value is 122%.
Turning to `C=C(c1ccc(C(=O)O)cc1)c1cc2c(cc1C)C(C)(C)CCC2(C)C` [Bexarotene] + Cc1cc([N+](=O)[O-])ccc1NS(=O)(=O)c1cc(Cl)ccc1Cl [FH535] (first compound 2 µM, partner dose 1 µM), the “cleaved PARP positive nuclei fraction” value was found to be 49.1%.
Take `Cc1cc(Nc2cc(N3CCN(C)CC3)nc(/C=C/c3ccccc3)n2)n[nH]1` + COC(=O)c1sccc1S(=O)(=O)Nc1ccc(Nc2ccccc2)cc1OC [GSK0660] (first compound 0.04 µM, partner dose 1 µM): the “cleaved PARP positive nuclei fraction” value was 60.8%.
Turning to `CC(C)C[C@H](NC(=O)[C@H](Cc1ccccc1)NC(=O)c1cnccn1)B(O)O` [Bortezomib] + Cc1cc([N+](=O)[O-])ccc1NS(=O)(=O)c1cc(Cl)ccc1Cl [FH535] (first compound 0.001 µM, partner dose 1 µM), the “cleaved PARP positive nuclei fraction” value came out at 48%.
Same read-out and setting: next, `CC(C)C[C@H](NC(=O)[C@H](Cc1ccccc1)NC(=O)c1cnccn1)B(O)O` [Bortezomib] + O=C(CCCCCCC(=O)Nc1ccccc1)NO [vorinostat] (first compound 0.001 µM, partner dose 0.08 µM): 89.4%; `Nc1ncn([C@H]2C[C@H](O)[C@@H](CO)O2)c(=O)n1` [decitabine] + COc1ccc2c(c1)CCC1C2CCC2(C)C(NCCCCCCN3C(=O)C=CC3=O)CCC12 [U73122] (first compound 0.1 µM, partner dose 0.4 µM): 140%.

The next assay concerns RPMI7951. Described as above. The note with it: library dose: low library concentration; 72 h.
For the compound `Nc1ncn([C@H]2C[C@H](O)[C@@H](CO)O2)c(=O)n1` [decitabine] + COc1ccc(-c2ccc3c(N4CCOCC4)nc(N4C[C@@H](C)O[C@@H](C)C4)nc3n2)cc1CO [KU0063794] (first compound 0.1 µM, partner dose 0.02 µM), the “cleaved PARP positive nuclei fraction” value was found to be 74.2%.
On to `CS(=O)(=O)CCNCc1ccc(-c2ccc3ncnc(Nc4ccc(OCc5cccc(F)c5)c(Cl)c4)c3c2)o1` [lapatinib] + O=S(=O)(c1ccccc1)N(CC(F)(F)F)c1ccc(C(O)(C(F)(F)F)C(F)(F)F)cc1 [T0901317] (first compound 0.8 µM, partner dose 1.4 µM), for which the “cleaved PARP positive nuclei fraction” value came to 92.5%.
For `Nc1ccn([C@@H]2O[C@H](CO)[C@@H](O)C2(F)F)c(=O)n1` [gemcitabine] + CC1(C)NC(=O)N(c2ccc([N+](=O)[O-])c(C(F)(F)F)c2)C1=O [nilutamide] (first compound 0.0004 µM, partner dose 1 µM), the “cleaved PARP positive nuclei fraction” value was determined as 51%.
On the same count and under the same terms, next, `CCCS(=O)(=O)Nc1ccc(F)c(C(=O)c2c[nH]c3ncc(Cl)cc23)c1F` + O=C1NC(=O)/C(=C/c2ccc(-c3ccc(F)cc3O)o2)S1 [AS252424] (first compound 0.08 µM, partner dose 1 µM): 114%; `CNC(=O)c1cc(Oc2ccc(NC(=O)Nc3ccc(Cl)c(C(F)(F)F)c3)cc2)ccn1` [sorafenib] + C[C@@H]1CCN(C(=O)CC#N)C[C@@H]1N(C)c1ncnc2[nH]ccc12 [CP690550] (first compound 0.4 µM, partner dose 1 µM): 155%.
As for `Cc1cc(Nc2cc(N3CCN(C)CC3)nc(/C=C/c3ccccc3)n2)n[nH]1` + CN(C)S(=O)(=O)c1ccc2c(c1)/C(=C/c1cc3c([nH]1)CCCC3)C(=O)N2 [SU6656] (first compound 0.04 µM, partner dose 0.4 µM), the “cleaved PARP positive nuclei fraction” value came out at 92.8%.
For `Nc1ncn([C@H]2C[C@H](O)[C@@H](CO)O2)c(=O)n1` [decitabine] + CCCCCCCCCCCC1=C(O)C(=O)C=C(O)C1=O [Embelin] (first compound 0.1 µM, partner dose 1.2 µM), the “cleaved PARP positive nuclei fraction” value is 228%.
Take `Nc1nc(F)nc2c1ncn2[C@@H]1O[C@H](CO)[C@@H](O)[C@@H]1O` [fludarabine] + CCCCCCCCCCCC1=C(O)C(=O)C=C(O)C1=O [Embelin] (first compound 0.2 µM, partner dose 1.2 µM): the “cleaved PARP positive nuclei fraction” value was found to be 98.1%.
For `O=C(O)c1ccc2c(c1)nc(Nc1cccc(Cl)c1)c1ccncc12` + COc1ccc2c(c1)CCC1C2CCC2(C)C(NCCCCCCN3C(=O)C=CC3=O)CCC12 [U73122] (first compound 0.4 µM, partner dose 0.4 µM), the “cleaved PARP positive nuclei fraction” value turned out to be 143%.
As to `Nc1ccn([C@@H]2O[C@H](CO)[C@@H](O)C2(F)F)c(=O)n1` [gemcitabine] + CO[C@@H]1[C@H](N(C)C(=O)c2ccccc2)C[C@H]2O[C@]1(C)n1c3ccccc3c3c4c(c5c6ccccc6n2c5c31)C(=O)NC4 [Midostaurin] (first compound 0.0004 µM, partner dose 0.08 µM), the “cleaved PARP positive nuclei fraction” value was 111%.
For the compound `CN1CCN(c2ccc3nc(-c4c(N)c5c(F)cccc5[nH]c4=O)[nH]c3c2)CC1` [Dovitinib] + O=C(O)C(=O)Nc1sc2c(c1C(=O)O)CCNC2 [TCS401] (first compound 0.1 µM, partner dose 1.66667 µM), the “cleaved PARP positive nuclei fraction” value is 114%.
On the same count and under the same terms, next, `Nc1ncn([C@H]2C[C@H](O)[C@@H](CO)O2)c(=O)n1` [decitabine] + COC(=O)c1sccc1S(=O)(=O)Nc1ccc(Nc2ccccc2)cc1OC [GSK0660] (first compound 0.1 µM, partner dose 1 µM): 159%.
Still for that read-out and setting: next, `Cc1cc(Nc2cc(N3CCN(C)CC3)nc(/C=C/c3ccccc3)n2)n[nH]1` + Cc1cc(N2CCOCC2)cc2[nH]c(-c3c(NC[C@@H](O)c4cccc(Cl)c4)cc[nH]c3=O)nc12 [BMS536924] (first compound 0.04 µM, partner dose 0.2 µM): 51%.
As for `Cn1c(=O)n(-c2ccc(C(C)(C)C#N)cc2)c2c3cc(-c4cnc5ccccc5c4)ccc3ncc21` + NC(=O)Nc1cc(-c2cccc(F)c2)sc1C(=O)N[C@H]1CCCNC1 [AZD7762] (first compound 0.004 µM, partner dose 0.02 µM), the “cleaved PARP positive nuclei fraction” value was 111%.
In the case of `C=C(c1ccc(C(=O)O)cc1)c1cc2c(cc1C)C(C)(C)CCC2(C)C` [Bexarotene] + O=C(Nc1ccccc1)c1cc([N+](=O)[O-])ccc1Cl [GW9662] (first compound 2 µM, partner dose 2 µM), the “cleaved PARP positive nuclei fraction” value was determined as 61.3%.
Same read-out and setting: next, `CNC(=O)c1cc(Oc2ccc(NC(=O)Nc3ccc(Cl)c(C(F)(F)F)c3)cc2)ccn1` [sorafenib] + COC(=O)c1sccc1S(=O)(=O)Nc1ccc(Nc2ccccc2)cc1OC [GSK0660] (first compound 0.4 µM, partner dose 1 µM): 83.7%; `CNC(=O)c1cc(Oc2ccc(NC(=O)Nc3ccc(Cl)c(C(F)(F)F)c3)cc2)ccn1` [sorafenib] + CCCCCCCCCCCC1=C(O)C(=O)C=C(O)C1=O [Embelin] (first compound 0.4 µM, partner dose 1.2 µM): 312%; `CS(=O)(=O)CCNCc1ccc(-c2ccc3ncnc(Nc4ccc(OCc5cccc(F)c5)c(Cl)c4)c3c2)o1` [lapatinib] + CN(C)S(=O)(=O)c1ccc2c(c1)/C(=C/c1cc3c([nH]1)CCCC3)C(=O)N2 [SU6656] (first compound 0.8 µM, partner dose 0.4 µM): 118%.
For the compound `C[C@@H](Oc1cc(-c2cnn(C3CCNCC3)c2)cnc1N)c1c(Cl)ccc(F)c1Cl` [Crizotinib] + CCCCCCCCCCCC1=C(O)C(=O)C=C(O)C1=O [Embelin] (first compound 0.2 µM, partner dose 1.2 µM), the “cleaved PARP positive nuclei fraction” value worked out at 124%.
Consider `Nc1nc(F)nc2c1ncn2[C@@H]1O[C@H](CO)[C@@H](O)[C@@H]1O` [fludarabine] + Cc1cc(N2CCOCC2)cc2[nH]c(-c3c(NC[C@@H](O)c4cccc(Cl)c4)cc[nH]c3=O)nc12 [BMS536924] (first compound 0.2 µM, partner dose 0.2 µM), for which the “cleaved PARP positive nuclei fraction” value was found to be 43.9%.
On to `Cc1cc(Nc2cc(N3CCN(C)CC3)nc(/C=C/c3ccccc3)n2)n[nH]1` + COc1ccc(COc2ccc(Cc3cnc(N)nc3N)cc2OC)cc1 [GW2580] (first compound 0.04 µM, partner dose 1 µM), for which the “cleaved PARP positive nuclei fraction” value turned out to be 237%.
In the case of `CNC(=O)c1cc(Oc2ccc(NC(=O)Nc3ccc(Cl)c(C(F)(F)F)c3)cc2)ccn1` [sorafenib] + NCC(=O)Nc1ccc(-n2nc(C(F)(F)F)cc2-c2ccc3c(ccc4ccccc43)c2)cc1 [OSU03012] (first compound 0.4 µM, partner dose 1 µM), the “cleaved PARP positive nuclei fraction” value stood at 109%.
`Cc1cc(Nc2cc(N3CCN(C)CC3)nc(/C=C/c3ccccc3)n2)n[nH]1` + OCCn1cc(-c2cnc3nnn(Cc4ccc5ncccc5c4)c3n2)cn1 [PF04217903] (first compound 0.04 µM, partner dose 1 µM): the “cleaved PARP positive nuclei fraction” value was determined as 95.7%.
In the case of `Nc1nc(F)nc2c1ncn2[C@@H]1O[C@H](CO)[C@@H](O)[C@@H]1O` [fludarabine] + CCc1ccc(CCOc2ccc(CC3SC(=O)NC3=O)cc2)nc1 [pioglitazone] (first compound 0.2 µM, partner dose 2 µM), the “cleaved PARP positive nuclei fraction” value was found to be 94.4%.
Consider `CS(=O)(=O)CCNCc1ccc(-c2ccc3ncnc(Nc4ccc(OCc5cccc(F)c5)c(Cl)c4)c3c2)o1` [lapatinib] + OCCn1cc(-c2cnc3nnn(Cc4ccc5ncccc5c4)c3n2)cn1 [PF04217903] (first compound 0.8 µM, partner dose 1 µM), for which the “cleaved PARP positive nuclei fraction” value came out at 95.5%.

The record behind these values is the supplement of paper PMC4604168 (melanoma cell lines).
